At least one structure is not confirmed: it was looked up by name or label, or the drawing left a doubt.
Tested on: th(tk-)/th(tk-) mice
Assay: Prepulse inhibition (PPI) and acoustic startle in th(tk-)/th(tk-) and control mice
Assay type: in vivo
[1] = transgenic mice, clozapine 6 mg/kg

`CN1CCN(C2=Nc3cc(Cl)ccc3Nc3ccccc32)CC1` [clozapine] was tested, and the PPI or startle (clozapine 3.0 mg/kg given individually) was “little effect”, the PPI (control mice, clozapine 6 mg/kg) was “significantly increased PPI” and the PPI [1] was “significantly increased PPI”. For the same compound, the startle response [1] was “decreased startle response”.
